Values of other authors, collected in US20090022739A1, “MODULATING THE KV1.1 VOLTAGE-GATED POTASSIUM CHANNEL IN T-CELLS FOR REGULATING THE […] AND SECRETION OF TUMOR NECROSIS FACTOR ALPHA (tnf-ALPHA) AND TREATING HUMAN DISEASE OR INJURIES MEDIATED BY […] HIGH OR LOW LEVELS OF TNF-ALPHA” (priority 2005, published 2009).
Read-outs that look alike come from different tables or passages of the source. At least one compound was matched to its structure with a doubt left. Some of these results come from one statement about several compounds together.

System: ion channels
Conditions: manufacturer's data sheets and/or the literature, cited from earlier work
[1] = mixed units printed in the value

Compound	effective concentrations [1]	effective concentrations
COC(=O)C1=C(C)NC(C)=C([N+](=O)[O-])C1c1ccccc1C(F)(F)F (stereo not drawn) [+Bay K, R-(+)-Bay K8644]	10 nM-1 μM	
N#Cc1cc2[nH]c(=O)c(=O)[nH]c2cc1[N+](=O)[O-] [CNQX]	100 nM-50 μM	
Dendrotoxin-K (AAKYCKLPLRIGPCKRKIPSFYYKWKAKQCLPFDYSGCGGNANRFKTIEECRRTCVG) [DTX-K]		10 to 100 nM
